Assay results published in the supplement of paper PMC12009310.
Counter-ions that a name gives are not always drawn. ± gives the standard deviation of the averaged measurements. The list shows a part of the results. Baselines shift from plate to plate; read single values as rough.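 The cells are a mouse kidney inner medullary collecting duct line, silenced either for the ciliary gene Rpgrip1l or with a non-targeting control siRNA.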

test system: mIMCD3; assay: robust z score of cell number vs plate controls; higher = more cells (less cytotoxic); conditions: 10 µM; 48 h; siRNA: siScr

SMILES | robust z score of cell number
Ic1cncc(OC[C@@H]2CCN2)c1 | 1.57 ± 2.1
Cn1cc(C(=O)C(=O)N[C@H]2CN3CCC2CC3)c2ccccc21 | -16.3 ± 9.1
Oc1ccc2c3c1O[C@H]1c4[nH]c5c(c4C[C@@]4(O)[C@@H](C2)N(CC2CC2)CC[C@]314)C[C@@]1(O)[C@H]2Cc3ccc(O)c4c3[C@@]1(CCN2CC1CC1)[C@H]5O4 [nor-Binaltorphimine dihydrochloride] | -2.92 ± 5.5

test system: mIMCD3; assay: robust z score of cilia incidence (% cells with single cilium) vs plate controls; higher = more ciliated cells; conditions: 10 µM; 48 h; siRNA: siScr

SMILES | robust z score of cilia incidence
CC(=O)NCCc1c[nH]c2ccccc12 [N-Acetyltryptamine] | 1.26 ± 1.7
C[C@@H]1O[C@@H](O[C@H]2C[C@@H](O)[C@]3(CO)[C@H]4[C@H](O)C[C@]5(C)[C@@H](C6=CC(=O)OC6)CC[C@]5(O)[C@@H]4CC[C@]3(O)C2)[C@H](O)[C@H](O)[C@H]1O [Ouabain] | -0.559 ± 2.8
c1ccc2c(c1)OCC(C1=NCCN1)O2 (stereo not drawn) [Idazoxan hydrochloride] | -6.9 ± 6.6
O=C(O)/C=C/CO [trans-4-Hydroxycrotonic acid] | 1.93 ± 0.024
CN[C@@H]1C[C@@H](c2ccc(Cl)c(Cl)c2)c2ccccc21 [Indatraline hydrochloride] | -45.2 ± 11
N[C@@]1(C(=O)O)CC[C@@H](C(=O)O)C1 | -0.382 ± 2
COc1ccc(C(=O)N2CCCC2=O)cc1 [Aniracetam] | -2.56 ± 1.1
O=C(CCCN1CCC2(CC1)C(=O)N(Cc1cccc(F)c1)CN2c1ccccc1)c1ccc(F)cc1 [3'-Fluorobenzylspiperone maleate] | -47.9 ± 3
CCCCCCC[n+]1ccc(-c2cc[n+](CCCCCCC)cc2)cc1 [DHBP dibromide] | -25.6 ± 1.6
CC(C)C[C@@H](N)C1(c2ccc(Cl)cc2)CCC1 | 1.7 ± 0.19
Cc1onc(O)c1CC(N)C(=O)O (racemic) | 0.658 ± 0.83
CCN1C[C@]2(COC(=O)c3ccccc3N3C(=O)C[C@H](C)C3=O)CC[C@H](OC)[C@@]34[C@@H]5C[C@H]6[C@H](OC)[C@@H]5[C@](O)(C[C@@H]6OC)[C@](O)([C@@H](OC)[C@H]23)[C@@H]14 [Methyllycaconitine citrate] | -0.0946 ± 0.012
NCc1cc(O)no1 [Muscimol] | 2.86 ± 0.51
Cc1nnc2ccc(-c3cccc(C(F)(F)F)c3)nn12 | -1.07 ± 12
CCCN(CCC)C1CCc2cccc(O)c2C1 (stereo not drawn) [8-Hydroxy-DPAT hydrobromide] | 0.779 ± 2.1
Cc1[nH]c2ccc(Cl)cc2c1C1=CCNCC1 | -0.025 ± 2.1
O=c1[nH]c2ccccc2n1C1CCN(CCCC(c2ccc(F)cc2)c2ccc(F)cc2)CC1 [Pimozide] | -47.8 ± 10
C[C@@H]1CC[C@H]2[C@@H](C)C(=O)O[C@@H]3O[C@@]4(C)CC[C@@H]1[C@]32OO4 [Artemisinin] | 1.61 ± 4.9
c1ccc2c(c1)[I+]c1ccccc1-2 [Diphenyleneiodonium chloride] | -19.5 ± 1.6
CC(C)NCC(O)c1ccc(N)c(C#N)c1 (stereo not drawn) [Cimaterol] | 0.119 ± 0.26

Rewritten in markdown: entries from further up

| SMILES | robust z score of cilia incidence |
| --- | --- |
| Cc1nnc2ccc(-c3cccc(C(F)(F)F)c3)nn12 | -1.07 ± 12 |
| CCCN(CCC)C1CCc2cccc(O)c2C1 (stereo not drawn) [8-Hydroxy-DPAT hydrobromide] | 0.779 ± 2.1 |

More entries

SMILES | robust z score of cilia incidence
S=C=Nc1cccc(C2(N3CCCCC3)CCCCC2)c1 [Metaphit] | -0.156 ± 0.44
COc1ccc(CNC(=O)/C=C/c2ccc3[nH]cc(CCN(C)C)c3c2)cc1 | -3.38 ± 1.5
Cc1cc(C)cc(C(=O)OC2C[C@H]3CC[C@@H](C2)N3C)c1 (stereo partly drawn) [Tropanyl-3,5-dimethylbenzoate] | -19 ± 2.5
COc1ccc2[nH]cc(C3=CCNCC3)c2c1 | 0.252 ± 5.2
N[C@H](C(=O)O)c1cc(O)no1 [Ibotenic acid] | 4.4 ± 1.8
c1ccc(C2CC2)c(OCC2=NCCN2)c1 [Cirazoline hydrochloride] | 2.04 ± 1.2
COc1ccc(-n2nc(C(F)(F)F)cc2-c2ccc(Cl)cc2)cc1 | -25.2 ± 16
CC(CN)CC(=O)O (stereo not drawn) [3-Methyl-GABA] | 0.31 ± 1.3
CN1[C@@H]2CC[C@H]1C[C@@H](OC(=O)c1cc(Cl)cc(Cl)c1)C2 | -19.3 ± 1.4
O=Cc1cn(Cc2ccc(Cl)cc2)c2ccccc12 [Oncrasin 1] | -0.192
C[C@H](N)Cc1cnc[nH]1 [(S)-(+)-a-Methylhistamine dihydrobromide] | 1.09 ± 0.35
CN1C[C@H](C(=O)N[C@]2(C)O[C@@]3(O)[C@@H]4CCCN4C(=O)[C@H](Cc4ccccc4)N3C2=O)C[C@@H]2c3cccc4[nH]cc(c34)C[C@H]21 [Dihydroergotamine mesylate] | -3.18 ± 1
O=C(CCCN1CCC2(CC1)C(=O)NCN2c1ccccc1)c1ccc(F)cc1 [Spiperone hydrochloride] | -33.2 ± 8.1
C[C@@]12N[C@@H](Cc3ccccc31)c1ccccc12 [(-)-MK 801 maleate] | -4.1 ± 4.3
CC(C)(C)NCC(O)COc1cccc2[nH]c(C#N)cc12 (stereo not drawn) [Cyanopindolol hemifumarate] | -0.578 ± 1.8
C[N+]1(C)CCc2cc3c(cc2[C@H]1[C@@H]1OC(=O)c2c1ccc1c2OCO1)OCO3 [(-)-Bicuculline methochloride] | -10.3 ± 4.6
N=C(NCc1ccc(Cl)cc1)SCCCc1c[nH]cn1 [Clobenpropit dihydrobromide] | -1.98 ± 3.3
Ic1cncc(OC[C@@H]2CCN2)c1 | 1.14 ± 0.23
Cn1cc(C(=O)C(=O)N[C@H]2CN3CCC2CC3)c2ccccc21 | -29.6 ± 7.8
Oc1ccc2c3c1O[C@H]1c4[nH]c5c(c4C[C@@]4(O)[C@@H](C2)N(CC2CC2)CC[C@]314)C[C@@]1(O)[C@H]2Cc3ccc(O)c4c3[C@@]1(CCN2CC1CC1)[C@H]5O4 [nor-Binaltorphimine dihydrochloride] | 2.17 ± 1.3
